Patent US20220235395

Experiments:
[1] = system: T1, R2 reverse transcriptase P2 variant (N-terminal truncation); test: activity assay; details: purified recombinant protein, protein details: His6, E. coli BL21(DE3), pET45b
T1 sequence: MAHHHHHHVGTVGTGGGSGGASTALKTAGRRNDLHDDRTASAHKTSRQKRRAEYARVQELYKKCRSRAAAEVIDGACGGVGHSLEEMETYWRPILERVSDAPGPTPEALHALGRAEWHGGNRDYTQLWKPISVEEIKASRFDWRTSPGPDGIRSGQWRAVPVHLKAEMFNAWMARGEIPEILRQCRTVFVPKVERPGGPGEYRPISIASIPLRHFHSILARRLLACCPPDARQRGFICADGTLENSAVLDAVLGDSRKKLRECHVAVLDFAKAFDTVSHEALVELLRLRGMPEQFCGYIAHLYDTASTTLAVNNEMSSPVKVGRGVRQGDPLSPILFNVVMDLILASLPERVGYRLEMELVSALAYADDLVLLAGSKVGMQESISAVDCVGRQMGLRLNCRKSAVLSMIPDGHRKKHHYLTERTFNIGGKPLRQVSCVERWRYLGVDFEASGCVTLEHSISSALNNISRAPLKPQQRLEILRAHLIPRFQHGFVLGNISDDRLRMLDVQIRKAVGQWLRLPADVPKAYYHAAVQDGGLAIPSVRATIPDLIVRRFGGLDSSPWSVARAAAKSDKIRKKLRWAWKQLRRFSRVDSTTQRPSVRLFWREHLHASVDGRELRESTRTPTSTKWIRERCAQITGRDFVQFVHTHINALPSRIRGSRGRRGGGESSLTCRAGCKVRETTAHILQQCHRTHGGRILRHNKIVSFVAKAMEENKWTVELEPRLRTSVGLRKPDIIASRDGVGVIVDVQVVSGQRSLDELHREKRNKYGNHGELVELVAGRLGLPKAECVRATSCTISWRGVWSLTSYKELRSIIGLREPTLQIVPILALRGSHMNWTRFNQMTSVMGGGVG

[2] = molecular target: MMLV reverse transcriptase (Moloney murine leukemia virus) (UniProt P03355); test: activity assay; details: purified recombinant protein, protein details: Clontech
[3] = conversion with P173 acceptor, 30 C, qPCR

Sequence: AATGATACGGCGACCACCGAGATCTACACTCTTTCCCTACACGACGCTCTTCCGATCT / AGATCGGAAGAGCGTCGTGTAG [P188 DNA template/P189 DNA primer]
- activity on this sequence ([1]; extension on DNA template, 30 C 1 h): active

Sequence: AATGATACGGCGACCACCGAGATCTACACTCTTTCCCTACACGACGCTCTTCCGATCT [P188 DNA oligonucleotide acceptor]
- activity on this sequence ([1]; template jumping to DNA P188, 30 C, single-stranded DNA): active

Sequence: CAGUCAGUCAGUCAGUCAGUGCCAAAUGCCUCGUCAUC / TGATGACGAGGCATTTGGC [P173 RNA template/P174 DNA primer]
- activity on this sequence ([2]; primer extension, 42 C 1 h, label: 5' 6-FAM on primer): active
- activity on this sequence ([1]; extension optimum at 300 mM NaCl, 5 mM MgCl2, pH 7.5, room temperature, label: 5' 6-FAM on primer): active

Sequence: CAGUCAGUCAGUCAGUCAGUGCCAAAUGCCUCGUCAUC [P173 RNA acceptor]
- activity on this sequence ([1]; template jumping to P173, optimum 300 mM NaCl, 5 mM MgCl2): active

Sequence: GGAUCCUCUAGAGUCGACCUGCAGGCAUGCAAGCUUGGCACUGGCCGUCGUUUUACAACGUCGUGACUGGGAAAACCCUGGCGUUACCCAACUUAAUCGCCUUGCAGCACAUCCCCCUUUCGCCAGCUGGCGUAAUAGCGAAGAGGCCCGCACCGAUCGCCCUUCCCAACAGUUGCGCAGCCUGAAUGGCGAAUGGC / GCCATTCGCCATTCAGGCTGC [200 bp RNA/P170 primer (Example 6)]
- activity on this sequence [1, 3]: active

Sequence: GGAUCCUCUAGAGUCGACCUGCAGGCAUGCAAGCUUGGCACUGGCCGUCGUUUUACAACGUCGUGACUGGGAAAACCCUGGCGUUACCCAACUUAAUCGCCUUGCAGCACAUCCCCCUUUCGCCAGCUGGCGUAAUAGCGAAGAGGCCCGCACCGAUCGCCCUUCCCAACAGUUGCGCAGCCUGAAUGGCGAAUGGCGCCUGAUGCGGUAUUUUCUCCUUACGCAUCUGUGCGGUAUUUCACACCGCAUAUGGUGCACUCUCAGUACAAUCUGCUCUGAUGCCGCAUAGUUAAGCCAGCCCCGACACCCGCCAACACCCGCUGACGCGCCCUGACGGGCUUGUCUGCUCCCGGCAUCCGCUUACAGACAAGCUGUGACCGUCUCCGGGAGCUGCAUGUGUCAGAGGUUUUCACCGUCAUCACCGAAACGCGCGAGACGAAAGGGCCUCGUGAUACGCCUAUUUUUAUAGGUUAAUGUCAUGAUAAUAAUGGUUUCUUAGACGUCAGGUGGCACUUUUCGGGGAAAUGUGCGCGGAACCCCUAUUUGUUUAUUUUUCUAAAUACAUUCAAAUAUGUAUCCGCUCAUGAGACAAUAACCCUG / CAGGGTTATTGTCTCATGAGCG [600 bp RNA/P172 primer (Example 5)]
- activity on this sequence ([2]; lower conversion than R2 with P181 TSO, 42 C, qPCR): less active

Sequence: GGAUCCUCUAGAGUCGACCUGCAGGCAUGCAAGCUUGGCACUGGCCGUCGUUUUACAACGUCGUGACUGGGAAAACCCUGGCGUUACCCAACUUAAUCGCCUUGCAGCACAUCCCCCUUUCGCCAGCUGGCGUAAUAGCGAAGAGGCCCGCACCGAUCGCCCUUCCCAACAGUUGCGCAGCCUGAAUGGCGAAUGGCGCCUGAUGCGGUAUUUUCUCCUUACGCAUCUGUGCGGUAUUUCACACCGCAUAUGGUGCACUCUCAGUACAAUCUGCUCUGAUGCCGCAUAGUUAAGCCAGCCCCGACACCCGCCAACACCCGCUGACGCGCCCUGACGGGCUUGUCUGCUCCCGGCAUCCGCUUACAGACAAGCUGUGACCGUCUCCGGGAGCUGCAUGUGUCAGAGGUUUUCACCGUCAUCACCGAAACGCGCGAGACGAAAGGGCCUCGUGAUACGCCUAUUUUUAUAGGUUAAUGUCAUGAUAAUAAUGGUUUCUUAGACGUCAGGUGGCACUUUUCGGGGAAAUGUGCGCGGAACCCCUAUUUGUUUAUUUUUCUAAAUACAUUCAAAUAUGUAUCCGCUCAUGAGACAAUAACCCUG / CAGGGTTATTGTCTCATGAGCG [600 bp RNA/P172 primer (Example 6)]
- activity on this sequence [1, 3]: active

Sequence: GGAUCCUCUAGAGUCGACCUGCAGGCAUGCAAGCUUGGCACUGGCCGUCGUUUUCAACGUCGUGACUGGGAAAACCCUGGCGUUACCCAACUUAAUCGCCUUGCAGCACAUCCCCCUUUCGCCAGCUGGCGUAAUAGCGAAGAGGCCCGCACCGAUCGCCCUUCCCAACAGUUGCGCAGCCUGAAUGGCGAAUGGC / CACGACGTTGTAAAACGACGGC [200 bp RNA/P187 primer]
- activity on this sequence ([1]; template copied and jump to P173 acceptor, 30 C, PCR readout): active

Sequence: GTTAATAACGAAATGAGCAGCCGGG [P181 TSO acceptor]
- activity on this sequence ([2]; last three G are ribonucleotides (rGrGrG), no apparent template jumping product, 42 C): not active

For some of these results: Protein sequences can lack the tags named with them. For at least one entry, the source does not settle the construct or the ends of the probe. For some of these results: A negative result means that nothing was seen under these conditions. For some of these results: A weaker result is weaker than the reference pair of the same experiment.
